Results of single-concentration screens

Sequences of proteins named here, by UniProt entry; tags and fusion partners are left off. Residues count along the entry.
UniProt A4I591, 1-473: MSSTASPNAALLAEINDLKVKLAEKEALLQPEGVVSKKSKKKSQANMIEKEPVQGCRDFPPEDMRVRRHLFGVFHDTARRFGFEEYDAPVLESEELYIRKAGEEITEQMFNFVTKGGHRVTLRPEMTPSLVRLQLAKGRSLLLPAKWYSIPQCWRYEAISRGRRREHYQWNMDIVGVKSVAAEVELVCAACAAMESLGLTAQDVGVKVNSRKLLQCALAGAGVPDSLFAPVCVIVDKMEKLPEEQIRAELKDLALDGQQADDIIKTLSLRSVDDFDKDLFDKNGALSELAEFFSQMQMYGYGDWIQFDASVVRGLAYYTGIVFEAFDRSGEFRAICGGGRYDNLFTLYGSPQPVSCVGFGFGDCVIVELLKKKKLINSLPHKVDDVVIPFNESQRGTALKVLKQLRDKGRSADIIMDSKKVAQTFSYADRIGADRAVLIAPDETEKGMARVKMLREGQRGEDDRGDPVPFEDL
UniProt P9WNZ1, whole entry: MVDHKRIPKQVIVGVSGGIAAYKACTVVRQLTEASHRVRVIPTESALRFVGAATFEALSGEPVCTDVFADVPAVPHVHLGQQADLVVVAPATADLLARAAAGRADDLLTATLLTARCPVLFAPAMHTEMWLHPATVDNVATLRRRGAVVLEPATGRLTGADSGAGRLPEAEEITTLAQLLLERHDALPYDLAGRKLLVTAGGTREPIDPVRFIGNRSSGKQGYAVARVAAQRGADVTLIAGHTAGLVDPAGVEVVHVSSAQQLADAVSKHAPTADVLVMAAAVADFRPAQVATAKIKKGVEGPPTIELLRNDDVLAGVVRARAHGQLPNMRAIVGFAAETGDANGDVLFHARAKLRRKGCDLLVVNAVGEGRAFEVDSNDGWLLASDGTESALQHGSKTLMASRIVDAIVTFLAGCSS

Data taken from ChEMBL document CHEMBL3988442, “University of Dundee, Small-Polar-MMV Screening Library” (2021).

LiHisRS: 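Histidine-tRNA ligase, Leishmania infantum (UniProt A4I591). Enzyme assay of histidyl-tRNA synthetase; the read-out is not stated. Tested at 30 µM. Direction is inferred from retests: higher values go with stronger inhibition. The assay is labelled LdHisRS but filed under L. infantum. Of about 69,000 compounds tested this way, about 410 (0.6%) reached 50% or more in at least one test.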
Leishmania in macrophages: 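Cell assay of Leishmania donovani living inside macrophages; the read-out is not stated. Compounds at 30 µM. Higher reads as stronger inhibition (inferred: compounds with an IC50 in retests scored well above the rest). About 69,000 compounds were tested under these conditions; 1.5% (about 1,000) showed 50% or more at least once.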
CoaBC: 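Coenzyme A biosynthesis protein CoaBC, Mycobacterium tuberculosis (UniProt P9WNZ1). Enzyme assay of CoaBC with a phosphate dye (Biomol Green) read at 650 nm. Concentration: 30 µM. Direction is inferred from only a few compounds that gave an IC50; most scored high, so higher reads as stronger inhibition. Most strong results did not repeat in a second test. Size under these conditions: about 67,000 compounds, about 40 of them at 50% or above in at least one test.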

Results are given as percent effect. The record does not define 0% and 100%; most values in the screen are far below 50% and negative numbers occur (in some assays of this library far below -100). Compounds were drawn at random from those tested, without regard to their results. A dash means the value is not listed here; it may have been measured.

SMILES,LiHisRS,Leishmania in macrophages,CoaBC
COc1cc2c(cc1CN1CCn3c(CO)nnc3C1)CCC2,-5.263,-,0.4866
[H][C@]12CN(Cc3nc(C)c[nH]3)CC[C@@]1(O)CCN(C(=O)C1CCC1)C2,-,24.52,-
CC(C)[C@H](NC(=O)c1cccc(CCC(C)(C)O)c1)C(N)=O,7.5,4.153,1.863
CN1CCN(Cc2cnc3n2CCN(Cc2cccnc2)CC3)CC1,8.333,-,-10.37
Cl.O=C(NC[C@@]1(COc2cnccn2)C[C@@H](O)[C@@H](O)C1)C1CCOCC1,-,3.369,-
Cc1nn(C)c(C)c1CNC(=O)c1cc(NC(=O)C2CC2)n(C)n1,12.07,43.02,-3.464
COCc1ccccc1C(=O)NS(=O)(=O)CCCC#N,14.47,19.45,-0.6452
CN(C)c1ncnc2c1CCN(C(=O)c1sccc1S(N)(=O)=O)C2,18.03,24.36,-0.7673
O=C(c1cc2ccccc2[nH]c1=O)N1CCC2(CCCNC2)C1 (configuration not stated),-11.67,11.83,13.42
CC1N(c2cnn(C)c2)C(=O)COC12CCN(Cc1ccco1)CC2 (configuration not stated),7.692,-,3.03
CO[C@H]1CCN(Cc2cnn(C)c2)[C@@H]2CN(Cc3ccncc3)C[C@H]12,5.128,-,3.759
Cc1cc(C(=O)NCC(c2ccsc2)N(C)C)no1 (configuration not stated),8.929,6.088,16.23
c1ccc(CN2CCc3ncnc(-c4ccsc4)c3CC2)nc1,1.504,-,6.17
CC(c1ccc(C(F)(F)F)cc1)N1CCN(CCS(C)(=O)=O)CC1 (configuration not stated),12.9,26.21,0.7335
CNC(=O)C1(CCCc2ccccn2)CN(Cc2scnc2C)C1,4.255,-13.98,-3.067
CCCSCC(=O)N1C[C@H]2CC[C@@H]1CN(Cc1cccnc1)C2,3.226,-,3.909
CC(O)CN1CCN(C(=O)c2ccc(N(C)C)nn2)CC1 (configuration not stated),19.18,20.4,0.9639
CCc1[nH]c2c(CNC(=O)C3CCCN(C)C3)cc(C)cc2c1C (configuration not stated),7.5,13.35,-0.1242
CN(C)C(=O)CN1C(=O)CCC12CCN(Cc1cccs1)CC2,8.257,-,-0.9412
CC(=O)c1sc2nc3c(c(C(F)(F)F)c2c1N)CN(C(C)=O)CC3,16.95,36.13,1.882
COCCCNC(=O)C(C)(C)N(C)C1CCCC1,-5.128,17.54,4.628
CNc1cccc(CC2COCCN(C(=O)c3cncs3)C2)n1 (configuration not stated),2.878,25.09,3.828
CN1CCCN(C[C@H]2C[C@H](CO)CN(Cc3cccnc3N)C2)CC1,14.29,16.1,-
O=C1CC(c2ccncc2)C2(CCN(CCO)CC2)N1 (configuration not stated),0,18.35,2.703
O=C(CN1CCOCS1(=O)=O)NCc1ccccc1,13.33,-15.82,5.637
COCCNS(=O)(=O)c1ccc(Cl)c(C(=O)N(C)Cc2ccsc2)c1,10.67,1.127,-5.372
Cc1cc2[nH]c(O)nc2cc1NCc1ccccc1,14.94,2.603,2.685
CN(C)[C@H]1CCCCN(Cc2ccccc2Cn2cccn2)C1,17.11,-32.86,-51.4
CCc1cc(C(=O)N2CCCn3nc(CCC(=O)O)cc3C2)cs1,16.8,1.393,0.6031
CCc1noc(CN2CCN(C(=O)c3ccccn3)CC2)n1,8.264,19.59,16.63
N#CCCN(C(=O)CCc1cscn1)c1ccc2c(c1)OCCO2,-3.109,-6.6,-2.675
CC(C)(C#N)CCCS(=O)(=O)c1nccn1-c1cccc(F)c1,12.7,5.45,0.7453
CC1c2ncc(COCc3ccccn3)n2CCN1C1CCCC1 (configuration not stated),27.78,-,-14.84
O=C(O)CCN(Cc1ccc(F)c(F)c1)C(=O)C1CC1,8.696,-22.89,2.421
Cc1ccc(CN2CCC(F)(F)C3(CCN(c4cnccn4)C3)C2)o1.O=C(O)C(F)(F)F.O=C(O)C(F)(F)F (configuration not stated),-,40.12,-
Cc1nsc(NC(=O)N2CCCC2C)n1 (configuration not stated),7.692,-30.14,-3.2
O=c1cc(CN(CCO)C2CC2)nc2ccc(Cl)cn12,15,-0.5868,5.353
CN(C)CCSc1ccc(NC(=O)c2nccn3ccnc23)cc1,10.96,0.9671,-12.35
CN(Cc1nc(C(F)(F)F)cs1)C(=O)CCc1cccnc1,11.7,-20.33,2.694
CN(Cc1ccco1)C(=O)CN1CCCC(Cn2cncn2)C1 (configuration not stated),19.7,2.309,1.169

For reference, 3 entries once more:

{"smiles": "CN(C)c1ncnc2c1CCN(C(=O)c1sccc1S(N)(=O)=O)C2", "LiHisRS": 18.03, "Leishmania in macrophages": 24.36, "CoaBC": -0.7673}
{"smiles": "CNc1cccc(CC2COCCN(C(=O)c3cncs3)C2)n1", "stereo": "configuration not stated", "LiHisRS": 2.878, "Leishmania in macrophages": 25.09, "CoaBC": 3.828}
{"smiles": "O=C(CN1CCOCS1(=O)=O)NCc1ccccc1", "LiHisRS": 13.33, "Leishmania in macrophages": -15.82, "CoaBC": 5.637}